Binding data for one substance are collected here from publication PMC10397248, “A novel N^6-Deoxyadenine methyltransferase METL-9 modulates C. elegans immunity via dichotomous mechanisms” (Cell Research, 2023).

Amino acid sequences for entries named in this document (tags omitted). A change or cut given only in a name is not applied to a line headed by its entry.
UniProt Q22123: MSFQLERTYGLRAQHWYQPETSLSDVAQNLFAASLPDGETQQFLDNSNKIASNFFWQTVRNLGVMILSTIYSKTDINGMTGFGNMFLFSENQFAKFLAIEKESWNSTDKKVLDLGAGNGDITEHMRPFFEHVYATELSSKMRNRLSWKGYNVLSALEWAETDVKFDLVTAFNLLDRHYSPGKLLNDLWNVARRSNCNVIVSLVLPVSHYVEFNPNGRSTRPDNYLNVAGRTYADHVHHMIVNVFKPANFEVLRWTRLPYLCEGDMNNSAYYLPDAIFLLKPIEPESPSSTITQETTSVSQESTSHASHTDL

Results are given in words; binding and its absence hold for the method and conditions named. In cells and extracts the contact can be indirect. A result given as binding can be weak or reduced; the word gives no strength. Tags and fused reporters may be left off the sequences shown.

The target of this assay is T1, DVE-1::GFP (C. elegans) (UniProt Q86MI0).
T1 sequence: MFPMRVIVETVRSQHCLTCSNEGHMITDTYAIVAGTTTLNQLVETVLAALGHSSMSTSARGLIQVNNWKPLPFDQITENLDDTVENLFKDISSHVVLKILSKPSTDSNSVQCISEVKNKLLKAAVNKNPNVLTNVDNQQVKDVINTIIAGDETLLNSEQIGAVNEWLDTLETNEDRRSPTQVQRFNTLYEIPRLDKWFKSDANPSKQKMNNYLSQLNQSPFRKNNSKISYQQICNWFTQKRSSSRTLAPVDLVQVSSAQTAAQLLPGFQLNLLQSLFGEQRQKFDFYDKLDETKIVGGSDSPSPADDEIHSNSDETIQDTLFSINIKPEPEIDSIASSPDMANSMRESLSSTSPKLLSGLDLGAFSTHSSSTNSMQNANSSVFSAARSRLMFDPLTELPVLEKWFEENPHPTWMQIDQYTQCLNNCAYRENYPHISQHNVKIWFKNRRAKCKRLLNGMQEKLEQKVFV
The experiment in a line: co-IP; GFP-Trap agarose on 4 mg total lysate (RIPA buffer) of dve-1p::dve-1::gfp animals, 6 h at 4 °C, 5 washes with RIPA; blots with anti-GFP and anti-METL-9; animals with or without pathogen infection.

For METL-9 (from UniProt Q22123) (enzyme), the binding entry is given as “binds”.
